Results from PMC8584161.
No constants are given. Whether binding was seen depends on the method and setting. Binding seen in cells or lysates may run through a third protein. Some entries that bind do so weakly or less than the wild type.

What was measured:
Numb4 isoform of NUMB = biological target: T1, Numb4 isoform of NUMB (UniProt P49757); test: co-IP; 293T cells co-expressing Numb4 and MCT1 or MCT4; 500 ug lysate; anti-NUMB, anti-MCT1 or anti-MCT4 antibody on protein A magnetic beads; Western blot
T1 sequence: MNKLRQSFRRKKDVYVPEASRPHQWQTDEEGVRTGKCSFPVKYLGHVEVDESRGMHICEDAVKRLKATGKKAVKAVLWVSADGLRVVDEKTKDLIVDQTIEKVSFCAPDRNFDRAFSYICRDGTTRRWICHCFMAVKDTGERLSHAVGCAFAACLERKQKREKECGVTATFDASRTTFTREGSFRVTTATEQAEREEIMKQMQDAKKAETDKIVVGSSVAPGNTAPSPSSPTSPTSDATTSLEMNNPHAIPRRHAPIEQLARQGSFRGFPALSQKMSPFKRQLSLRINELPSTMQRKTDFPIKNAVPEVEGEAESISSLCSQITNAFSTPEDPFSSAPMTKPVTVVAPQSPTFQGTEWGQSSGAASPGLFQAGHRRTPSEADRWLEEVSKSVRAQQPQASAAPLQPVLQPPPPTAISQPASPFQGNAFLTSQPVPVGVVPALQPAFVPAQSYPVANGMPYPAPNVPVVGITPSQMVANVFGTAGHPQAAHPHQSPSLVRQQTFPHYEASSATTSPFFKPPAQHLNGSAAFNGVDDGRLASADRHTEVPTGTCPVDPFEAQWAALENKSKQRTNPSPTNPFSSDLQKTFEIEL

[1] = biological target: T2, MCT4 in 293T cells expressing ubiquitin and Numb4 (human (endogenous in 293T)) (UniProt O15427); test: co-IP; 293T cells expressing ubiquitin and Numb4; 500 ug lysate; anti-MCT4 antibody on protein A magnetic beads; Western blot
T2 sequence: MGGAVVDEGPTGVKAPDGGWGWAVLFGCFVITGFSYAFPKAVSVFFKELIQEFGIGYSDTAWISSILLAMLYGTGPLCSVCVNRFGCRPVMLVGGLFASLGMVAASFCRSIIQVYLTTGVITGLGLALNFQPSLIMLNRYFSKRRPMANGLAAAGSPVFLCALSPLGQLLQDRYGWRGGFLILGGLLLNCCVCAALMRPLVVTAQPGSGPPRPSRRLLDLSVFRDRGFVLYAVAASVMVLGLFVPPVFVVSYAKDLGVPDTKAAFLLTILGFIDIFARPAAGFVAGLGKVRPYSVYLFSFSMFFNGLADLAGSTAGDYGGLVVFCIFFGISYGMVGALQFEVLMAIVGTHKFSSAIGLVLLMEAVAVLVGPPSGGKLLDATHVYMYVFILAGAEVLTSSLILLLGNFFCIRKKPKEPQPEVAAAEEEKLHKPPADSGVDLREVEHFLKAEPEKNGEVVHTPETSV

[2] = biological target: T3, Monocarboxylate transporter 4 (MCT4, SLC16A3) (UniProt O15427); test: co-IP; 293T cells co-expressing Numb4 and MCT1 or MCT4; 500 ug lysate; anti-NUMB, anti-MCT1 or anti-MCT4 antibody on protein A magnetic beads; Western blot
T3 sequence: T2 sequence

[3] = biological target: T4, Monocarboxylate transporter 1 (MCT1, SLC16A1) (UniProt P53985); test: as above
T4 sequence: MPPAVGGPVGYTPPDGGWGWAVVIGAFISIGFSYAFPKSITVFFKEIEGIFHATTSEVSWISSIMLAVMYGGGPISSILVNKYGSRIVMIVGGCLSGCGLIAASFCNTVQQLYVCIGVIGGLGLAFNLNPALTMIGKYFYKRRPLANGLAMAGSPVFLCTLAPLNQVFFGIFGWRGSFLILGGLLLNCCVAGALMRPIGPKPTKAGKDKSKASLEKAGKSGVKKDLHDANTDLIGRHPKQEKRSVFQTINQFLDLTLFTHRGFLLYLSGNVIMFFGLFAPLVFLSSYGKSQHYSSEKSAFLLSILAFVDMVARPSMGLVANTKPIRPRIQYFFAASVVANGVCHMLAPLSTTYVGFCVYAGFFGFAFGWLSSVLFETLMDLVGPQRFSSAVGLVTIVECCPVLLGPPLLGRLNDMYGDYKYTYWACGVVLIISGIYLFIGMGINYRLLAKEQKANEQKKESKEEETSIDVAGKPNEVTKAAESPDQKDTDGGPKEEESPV

[4] = biological target: T5, MCT1 in SAS cells (human (endogenous in SAS)) (UniProt P53985); test: co-IP; SAS cells expressing ubiquitin and Numb4; 500 ug lysate; anti-MCT1 antibody on protein A magnetic beads; Western blot
T5 sequence: T4 sequence

B1: Monocarboxylate transporter 1 (MCT1, SLC16A1) (protein, UniProt P53985 1-500)
chain: T4 sequence
With B1 the binding (Numb4 isoform of NUMB) was “binds”.

B2: Numb4 isoform of NUMB (protein, UniProt P49757-4 1-592)
chain: T1 sequence
In the case of B2, the binding [1] is reported as “binds”, the binding [2] is reported as “binds” and the binding [3] is reported as “binds”.

B3: Monocarboxylate transporter 4 (MCT4, SLC16A3) (protein, UniProt O15427 1-465)
chain: T2 sequence
For B3, the binding (Numb4 isoform of NUMB) was “binds”.

B4: Numb4 isoform of NUMB (expressed in SAS cells) (protein, UniProt P49757-4 1-592)
chain: T1 sequence
For B4, the binding [4] was “binds”.
